Assay results from patent US20210195917A1, “COMPOSITIONS AND RELATED METHODS FOR AGRICULTURE” (priority 2017, published 2021).
At least one structure is not confirmed: it was looked up by name or label, or the drawing left a doubt.

Tested on: Varroa mites
Assay: Varroa mite survival and mobility after oxytetracycline solution
Format: in vivo
Conditions: oxytetracycline solution 1, 10 or 50 μg/ml; observed at 4, 24, 48 hr; compared to the control

CN(C)[C@@H]1C(O)=C(C(N)=O)C(=O)[C@@]2(O)C(O)=C3C(=O)c4c(O)cccc4[C@@](C)(O)[C@H]3[C@H](O)[C@@H]12 [oxytetracyline, oxytetracycline]
mobility of Varroa mites: decreased
survival rate of Varroa mites: decreased
